According to PMC12366525, “Characterization of allosteric modulators that disrupt androgen receptor co-activator protein-protein interactions to alter transactivation–Drug leads for metastatic castration resistant prostate cancer” (SLAS discovery : advancing life sciences R & D, 2023):
Results are given in words; binding and its absence hold for the method and conditions named. A result given as binding can be weak or reduced; the word gives no strength.

Target: His6-AR-LBD (pET28a-AR-LBD (622–919))
Test: AlphaScreen or HTRF; 150 nM biotinylated TIF2-box III peptide on streptavidin donor beads; His6-AR-LBD (400 ng/well) with 10 uM DHT on nickel chelate acceptor beads; 1 h at room temperature in the dark; 500-fold excess of unlabeled peptide (75 uM) as minimum control; both purified

binding: binds
B1: Biotinylated TIF2-box-III (738–756) peptide (peptide)
peptide: CKKKENALLRYLLDKDDTKD
modifications: biotin on the N-terminus (Biotin-HN-); C-terminal amide (-CONH2)
